Patent publication US8299048B2, “Hexahydrocyclopentyl[f]indazole sulfonamides and derivatives thereof as selective glucocorticoid receptor modulators” (Merck Sharp & Dohme Corp., priority 2008, dated 2012)
pIC50: −log10 of the molar value. Some of these results come from one statement about several compounds together.

The molecules below were run against T1, glucocorticoid receptor (Homo sapiens, UniProt P04150) (assay: Ligand binding assay (GR BIND)). Conditions: displacement of 3H-DEX, MDA-MB-453 cell lysate, DEX as reference.
T1 construct: endogenous in cells
T1 sequence (P04150 1-777): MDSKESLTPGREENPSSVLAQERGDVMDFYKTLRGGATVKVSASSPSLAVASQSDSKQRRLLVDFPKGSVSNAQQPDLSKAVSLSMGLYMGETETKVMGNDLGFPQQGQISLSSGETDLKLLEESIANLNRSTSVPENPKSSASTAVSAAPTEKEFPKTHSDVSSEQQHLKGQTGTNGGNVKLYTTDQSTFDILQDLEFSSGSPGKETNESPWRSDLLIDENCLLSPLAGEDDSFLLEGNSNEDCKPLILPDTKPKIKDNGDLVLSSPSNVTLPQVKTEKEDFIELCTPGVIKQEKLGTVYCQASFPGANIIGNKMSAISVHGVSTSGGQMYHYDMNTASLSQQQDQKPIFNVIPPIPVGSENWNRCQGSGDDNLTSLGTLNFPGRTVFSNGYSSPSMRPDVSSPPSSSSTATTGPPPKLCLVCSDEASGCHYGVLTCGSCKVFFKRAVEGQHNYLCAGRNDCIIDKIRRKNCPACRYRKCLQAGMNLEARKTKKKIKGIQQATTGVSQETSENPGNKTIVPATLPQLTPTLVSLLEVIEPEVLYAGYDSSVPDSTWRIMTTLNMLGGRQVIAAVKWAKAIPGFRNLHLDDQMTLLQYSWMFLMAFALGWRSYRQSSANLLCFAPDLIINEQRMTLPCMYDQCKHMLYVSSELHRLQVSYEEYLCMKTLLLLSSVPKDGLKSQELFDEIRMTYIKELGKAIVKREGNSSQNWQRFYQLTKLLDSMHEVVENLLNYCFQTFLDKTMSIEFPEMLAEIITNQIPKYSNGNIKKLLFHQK
Procedure, shortened: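 Displacement of tritiated dexamethasone (6 nM trace solution) from receptor in cell supernatant was measured after overnight incubation at 4 °C in molybdate-containing TEGM, pH 7.2, 2% ethanol. Hydroxylapatite pulled down the receptor–ligand complex for filter washing and scintillation counting, with dexamethasone as reference.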

Row | SMILES | pIC50
1 | C[C@]12Cc3cnn(-c4ccc(F)cc4)c3C=C1CC[C@@H]2CN(CC1CCCO1)S(=O)(=O)Cc1cccc(C(F)(F)F)c1 (stereo partly drawn) [Example 110, N-{[(4αR,5S)-1-(4-fluorophenyl)-4α-methyl-1,4,4α,5,6,7-hexahydrocyclopenta[f]indazol-5-yl]methyl}-N-(tetrahydrofuran-2-ylmethyl)-1-[3-(trifluoromethyl)phenyl]methanesulfonamide] | > 6.00
2 | C[C@]12Cc3cnn(-c4ccc(F)cc4)c3C=C1CC[C@@H]2CN(CCc1ccccc1F)S(=O)(=O)Cc1ccc(Cl)c(Cl)c1 [Example 111, 1-(3,4-dichlorophenyl)-N-[2-(2-fluorophenyl)ethyl]-N-{[(4αR,5S)-1-(4-fluorophenyl)-4α-methyl-1,4,4α,5,6,7-hexahydrocyclopenta[f]indazol-5-yl]methyl}methanesulfonamide] | > 6.00
3 | C[C@H](O)CN(C[C@H]1CCC2=Cc3c(cnn3-c3ccc(F)cc3)C[C@@]21C)S(=O)(=O)c1ccc(F)c(Cl)c1 [Example 112, 3-chloro-4-fluoro-N-{[(4αR,5S)-1-(4-fluorophenyl)-4α-methyl-1,4,4α,5,6,7-hexahydrocyclopenta[f]indazol-5-yl]methyl}-N-[(2S)-2-hydroxypropyl]benzenesulfonamide] | > 6.00
4 | C[C@H](O)CN(C[C@H]1CCC2=Cc3c(cnn3-c3ccc(F)cc3)C[C@@]21C)S(=O)(=O)CC(F)(F)F [Example 113] | > 6.00
5 | C[C@@H](CN(C[C@H]1CCC2=Cc3c(cnn3-c3ccc(F)cc3)C[C@@]21C)S(=O)(=O)CC(F)(F)F)OS(=O)(=O)CC(F)(F)F [Example 114, (1S)-2-{{[(4αR,5S)-1-(4-fluorophenyl)-4α-methyl-1,4,4α,5,6,7-hexahydrocyclopenta[f]indazol-5-yl]methyl}[(2,2,2-trifluoroethyl)sulfonyl]amino}-1-methylethyl 2,2,2-trifluoroethanesulfonate] | > 6.00
6 | C[C@@H](O)CN(C[C@H]1CCC2=Cc3c(cnn3-c3ccc(F)cc3)C[C@@]21C)S(=O)(=O)c1ccc(F)c(Cl)c1 [Example 115, 3-chloro-4-fluoro-N-{[(4αR,5S)-1-(4-fluorophenyl)-4α-methyl-1,4,4α,5,6,7-hexahydrocyclopenta[f]indazol-5-yl]methyl}-N-[(2R)-2-hydroxypropyl]benzenesulfonamide] | > 6.00
7 | C[C@]12Cc3cnn(-c4ccc(F)cc4)c3C=C1CC[C@@H]2CN(CCc1ccccc1O)S(=O)(=O)c1ccccc1F [Example 116, 2-fluoro-N-{[(4αR,5S)-1-(4-fluorophenyl)-4α-methyl-1,4,4α,5,6,7-hexahydrocyclopenta[f]indazol-5-yl]methyl}-N-[2-(2-hydroxyphenyl)ethyl]benzenesulfonamide] | > 6.00
8 | C[C@]12Cc3cnn(-c4ccc(F)cc4)c3C=C1CC[C@@H]2CN(CCO)S(=O)(=O)c1ccccc1C(N)=O [Example 117, 2-{[{[(4αR,5S)-1-(4-fluorophenyl)-4α-methyl-1,4,4α,5,6,7-hexahydrocyclopenta[f]indazol-5-yl]methyl}(2-hydroxyethyl)amino]sulfonyl}benzamide] | > 6.00
9 | COCCN(C[C@H]1CCC2=Cc3c(cnn3-c3ccc(F)cc3)C[C@@]21C)S(=O)(=O)CCN1C(=O)c2ccccc2C1=O [Example 118, 2-(1,3-dioxo-1,3-dihydro-2H-isoindol-2-yl)-N-{[(4αR,5S)-1-(4-fluorophenyl)-4α-methyl-1,4,4α,5,6,7-hexahydrocyclopenta[f]indazol-5-yl]methyl}-N-(2-methoxyethyl)ethanesulfonamide] | > 6.00
10 | COc1ccccc1CCN(C[C@H]1CCC2=Cc3c(cnn3-c3ccc(F)cc3)C[C@@]21C)S(=O)(=O)Cc1cccc(C(F)(F)F)c1 [Example 119, N-{[(4αR,5S)-1-(4-fluorophenyl)-4α-methyl-1,4,4α,5,6,7-hexahydrocyclopenta[f]indazol-5-yl]methyl}-N-[2-(2-methoxyphenyl)ethyl]-1-[3-(trifluoromethyl)phenyl]methanesulfonamide] | > 6.00
11 | COc1ccccc1CCN(C[C@H]1CCC2=Cc3c(cnn3-c3ccc(F)cc3)C[C@@]21C)S(=O)(=O)CC(F)(F)F [Example 120, 2,2,2-trifluoro-N-{[(4αR,5S)-1-(4-fluorophenyl)-4α-methyl-1,4,4α,5,6,7-hexahydrocyclopenta[f]indazol-5-yl]methyl}-N-[2-(2-methoxyphenyl)ethyl]ethanesulfonamide] | > 6.00
12 | C[C@]12Cc3cnn(-c4ccc(F)cc4)c3C=C1CC[C@@H]2CN(CCc1ccccc1F)S(=O)(=O)CCN1C(=O)c2ccccc2C1=O [Example 121, 2-(1,3-dioxo-1,3-dihydro-2H-isoindol-2-yl)-N-[2-(2-fluorophenyl)ethyl]-N-{[(4αR,5S)-1-(4-fluorophenyl)-4α-methyl-1,4,4α,5,6,7-hexahydrocyclopenta[f]indazol-5-yl]methyl}ethanesulfonamide] | > 6.00
13 | C[C@]12Cc3cnn(-c4ccc(F)cc4)c3C=C1CC[C@@H]2CN(CCc1ccccc1O)S(=O)(=O)Cc1cccc(C(F)(F)F)c1 [Example 122, N-{[(4αR,5S)-1-(4-fluorophenyl)-4α-methyl-1,4,4α,5,6,7-hexahydrocyclopenta[f]indazol-5-yl]methyl}-N-[2-(2-hydroxyphenyl)ethyl]-1-[3-(trifluoromethyl)phenyl]methanesulfonamide] | > 6.00
14 | Cc1noc(C)c1S(=O)(=O)N(CCc1ccccc1O)C[C@H]1CCC2=Cc3c(cnn3-c3ccc(F)cc3)C[C@@]21C [Example 123, N-{[(4αR,5S)-1-(4-fluorophenyl)-4α-methyl-1,4,4α,5,6,7-hexahydrocyclopenta[f]indazol-5-yl]methyl}-N-[2-(2-hydroxyphenyl)ethyl]-3,5-dimethylisoxazole-4-sulfonamide] | > 6.00
15 | C[C@]12Cc3cnn(-c4ccc(F)cc4)c3C=C1CC[C@@H]2CN(CCc1ccccc1F)S(=O)(=O)Cc1cccnc1 [Example 124, N-[2-(2-fluorophenyl)ethyl]-N-{[(4αR,5S)-1-(4-fluorophenyl)-4α-methyl-1,4,4α,5,6,7-hexahydrocyclopenta[f]indazol-5-yl]methyl}-1-pyridin-3-ylmethanesulfonamide] | > 6.00
16 | COc1ccccc1CCN(C[C@H]1CCC2=Cc3c(cnn3-c3ccc(F)cc3)C[C@@]21C)S(=O)(=O)Cc1cccnc1 [Example 125, N-{[(4αR,5S)-1-(4-fluorophenyl)-4α-methyl-1,4,4α,5,6,7-hexahydrocyclopenta[f]indazol-5-yl]methyl}-N-[2-(2-methoxyphenyl)ethyl]-1-pyridin-3-ylmethanesulfonamide] | > 6.00
17 | COc1cccc(CCN(C[C@H]2CCC3=Cc4c(cnn4-c4ccc(F)cc4)C[C@@]32C)S(=O)(=O)CC(F)(F)F)c1 [Example 126, 2,2,2-trifluoro-N-{[(4αR,5S)-1-(4-fluorophenyl)-4α-methyl-1,4,4α,5,6,7-hexahydrocyclopenta[f]indazol-5-yl]methyl}-N-[2-(3-methoxyphenyl)ethyl]ethanesulfonamide] | > 6.00
18 | COc1ccc(CCN(C[C@H]2CCC3=Cc4c(cnn4-c4ccc(F)cc4)C[C@@]32C)S(=O)(=O)CC(F)(F)F)cc1 [Example 127, 2,2,2-trifluoro-N-{[(4αR,5S)-1-(4-fluorophenyl)-4α-methyl-1,4,4α,5,6,7-hexahydrocyclopenta[f]indazol-5-yl]methyl}-N-[2-(4-methoxyphenyl)ethyl]ethanesulfonamide] | > 6.00
19 | C[C@]12Cc3cnn(-c4ccc(F)cc4)c3C=C1CC[C@@H]2CN(CCc1ccccn1)S(=O)(=O)CC(F)(F)F [Example 128, 2,2,2-trifluoro-N-{[(4αR,5S)-1-(4-fluorophenyl)-4α-methyl-1,4,4α,5,6,7-hexahydrocyclopenta[f]indazol-5-yl]methyl}-N-(2-pyridin-2-ylethyl)ethanesulfonamide] | > 6.00
20 | C[C@]12Cc3cnn(-c4ccc(F)cc4)c3C=C1CC[C@@H]2CN(CCc1ccncc1)S(=O)(=O)CC(F)(F)F [Example 129, 2,2,2-trifluoro-N-{[(4αR,5S)-1-(4-fluorophenyl)-4α-methyl-1,4,4α,5,6,7-hexahydrocyclopenta[f]indazol-5-yl]methyl}-N-(2-pyridin-4-ylethyl)ethanesulfonamide] | > 6.00
21 | C[C@]12Cc3cnn(-c4ccc(F)cc4)c3C=C1CC[C@@H]2CN(CCc1ccc(O)cc1)S(=O)(=O)CC(F)(F)F [Example 130, 2,2,2-trifluoro-N-{[(4αR,5S)-1-(4-fluorophenyl)-4α-methyl-1,4,4α,5,6,7-hexahydrocyclopenta[f]indazol-5-yl]methyl}-N-[2-(4-hydroxyphenyl)ethyl]ethanesulfonamide] | > 6.00
22 | C[C@]12Cc3cnn(-c4ccc(F)cc4)c3C=C1CC[C@@H]2CN(CCc1ccccc1O)S(=O)(=O)Cc1cccnc1 [Example 131, N-{[(4αR,5S)-1-(4-fluorophenyl)-4α-methyl-1,4,4α,5,6,7-hexahydrocyclopenta[f]indazol-5-yl]methyl}-N-[2-(2-hydroxyphenyl)ethyl]-1-pyridin-3-ylmethanesulfonamide] | > 6.00
